Values from PubChem BioAssay AID652272 (Drosophila RNAi Screening Center, 2013).
The deposit covers about 21,000 reagents; below is an unselected part of those that have a named target and a result. Over the whole deposit, 503 (2.4%) were called active. 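Raw plate light values, not normalised; calls rest on replicate z-scores that were not deposited; hits include reporter decreases as well as increases.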 A number with no mark means an inactive call. The record does not give: the amount of reagent, the time to read-out.

Screen: 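Genes whose knock-down decreases or increases Hedgehog reporter output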 (primary screen)
System: Drosophila clone 8 (Cl8) cells
Reagents: long dsRNA against Drosophila genes
Read-out: 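Firefly light from a Hedgehog-responsive ptc promoter reporter and Renilla reference light, both read on a plate reader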
Reading the numbers: firefly Hh reporter signal: higher = more ptc reporter light; Renilla reference signal: higher = more Renilla control light
Call rule: 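Called a hit if the two-replicate mean z-score lies below -2 or above +3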
Calls: active = hit: reporter lowered or raised; inactive = not a hit

For CG14072 [SID104182167], what does the deposit list?
firefly Hh reporter signal, replicate 1: 95925; firefly Hh reporter signal, replicate 2: 89814; Renilla reference signal, replicate 1: 2808; Renilla reference signal, replicate 2: 6541

With Erasp (Endoplasmic reticulum stress-associated serine protease) [SID104186903], what does the deposit list?
firefly Hh reporter signal, replicate 1: 97693; firefly Hh reporter signal, replicate 2: 87493; Renilla reference signal, replicate 1: 4032; Renilla reference signal, replicate 2: 3648

For Dph3 (Diphthamide biosynthesis 3) [SID104194715], how do the results read?
firefly Hh reporter signal, replicate 1: 75093; firefly Hh reporter signal, replicate 2: 1.03e5; Renilla reference signal, replicate 1: 2609; Renilla reference signal, replicate 2: 2616

For dtn (detonator) [SID104197731], how do the results read?
firefly Hh reporter signal, replicate 1: 84048; firefly Hh reporter signal, replicate 2: 2.36e5; Renilla reference signal, replicate 1: 2236; Renilla reference signal, replicate 2: 7241

What did the screen give for Aos1 (Activator of SUMO 1) [SID104193905]?
firefly Hh reporter signal, replicate 1: 55492; firefly Hh reporter signal, replicate 2: 1.31e5; Renilla reference signal, replicate 1: 1786; Renilla reference signal, replicate 2: 6802

Which result is listed for Ric (Ras-related protein interacting with calmodulin) [SID104187324]?
firefly Hh reporter signal, replicate 1: 85642; firefly Hh reporter signal, replicate 2: 61120; Renilla reference signal, replicate 1: 2419; Renilla reference signal, replicate 2: 4540

2 entries from above, reformatted:
dtn (detonator) [SID104197731]
- firefly Hh reporter signal, replicate 1: 84048
- firefly Hh reporter signal, replicate 2: 2.36e5
- Renilla reference signal, replicate 1: 2236
- Renilla reference signal, replicate 2: 7241

Aos1 (Activator of SUMO 1) [SID104193905]
- firefly Hh reporter signal, replicate 1: 55492
- firefly Hh reporter signal, replicate 2: 1.31e5
- Renilla reference signal, replicate 1: 1786
- Renilla reference signal, replicate 2: 6802

The list goes on.
What did the screen give for CG14020 [SID104182142]?
firefly Hh reporter signal, replicate 1: 71697; firefly Hh reporter signal, replicate 2: 67008; Renilla reference signal, replicate 1: 1200; Renilla reference signal, replicate 2: 6908

What is on record for CG4891 [SID104181728]?
firefly Hh reporter signal, replicate 1: 54210; firefly Hh reporter signal, replicate 2: 44669; Renilla reference signal, replicate 1: 2646; Renilla reference signal, replicate 2: 2336

Which result is listed for Cnep1r2 (CTD nuclear envelope phosphatase 1 regulatory subunit 2) [SID104190742]?
firefly Hh reporter signal, replicate 1: 1.06e5; firefly Hh reporter signal, replicate 2: 1.08e5; Renilla reference signal, replicate 1: 4796; Renilla reference signal, replicate 2: 4066

For Sp1 [SID104197414], how do the results read?
firefly Hh reporter signal, replicate 1: 4.26e5; firefly Hh reporter signal, replicate 2: 1.43e5; Renilla reference signal, replicate 1: 25821; Renilla reference signal, replicate 2: 3928

What did the screen give for Sp1 [SID104198509]?
firefly Hh reporter signal, replicate 1: 60155; firefly Hh reporter signal, replicate 2: 1.32e5; Renilla reference signal, replicate 1: 1522; Renilla reference signal, replicate 2: 5467

For Rad60 [SID104195372], what does the deposit list?
firefly Hh reporter signal, replicate 1: 5.17e5; firefly Hh reporter signal, replicate 2: 1.05e5; Renilla reference signal, replicate 1: 25574; Renilla reference signal, replicate 2: 3512
